Laboratory results: PubChem BioAssay AID330 (DTP/NCI, 2004)
The list shows only some results of the screen, not a fair sample: it gathers tests that were run many times, whatever their T/C, doses with no T/C, and many T/C values between a quarter and a half above the control. Other doses and runs of a compound stand elsewhere. T/C: endpoint of the treated group in % of that of the vehicle group. Some entries give survivors of the animals treated and no T/C: the source files T/C as zero there, which appears to mark a toxic dose or a test without result, not a measured value. Some doses without a T/C left all or most animals alive at the check, yet need not have been tolerated: the source hardly ever lists a survival T/C far under the control, and the zero likely stands for such cases as well. Counts of survivors are from the toxicity check (mostly the fifth day) where no day follows; animals may have died later. Schedule codes are those of the source, taken here to give the interval after Q, in days (D) or hours (H), and the number of doses after X. Some entries hold several experiments; the values are given in rising order. For survival time, this PubChem deposit counts one and a half times the control or more as active, and values a quarter to a half above the control carry no call in these data; other NCI protocols may use other cut-offs. Some T/C values carry the count of animals alive at the toxicity check (mostly the fifth day); without a count, all were alive then.

Tested on: P388 leukemia ip, CD2F1 mice, survival T/C
Experiment: NCI In Vivo Anticancer Drug Screen. Data for tumor model P388 Leukemia (intraperitoneal) in CD2F1 (CDF1) mice
Details: T/C endpoint: median survival time, higher T/C = longer survival
[1] = dose: 200.0 mg/kg/injection, schedule: Q01DX001 (ip), vehicle: saline with Tween-80
[2] = dose: 400.0 mg/kg/injection, schedule: Q01DX001 (ip), vehicle: saline with Tween-80
[3] = dose: 50.0 mg/kg/injection, schedule: Q01DX005 (ip), vehicle: saline with Tween-80
[4] = dose: 100.0 mg/kg/injection, schedule: Q01DX005 (ip), vehicle: saline with Tween-80
[5] = dose: 200.0 mg/kg/injection, schedule: Q01DX005 (ip), vehicle: saline with Tween-80

Compound: COc1cccc2c1C(=O)c1c(O)c3c(c(O)c1C2=O)C[C@](O)(C(=O)CO)CC3OC1CC(N)C(OC2CCCCO2)C(C)O1 (some centres not stated)
- T/C (dose: 0.94 mg/kg/injection, schedule: Q01DX005 (ip), vehicle: water): 127 % of control [5 of 6 alive]
- T/C (dose: 1.56 mg/kg/injection, schedule: Q04DX003 (ip), vehicle: water): 127 % of control
- T/C (dose: 1.88 mg/kg/injection, schedule: Q01DX005 (ip), vehicle: water): 136 % of control
- T/C (dose: 12.5 mg/kg/injection, schedule: Q04DX003 (ip), vehicle: water): 132 % of control
- survivor count (dose: 25.0 mg/kg/injection, schedule: Q04DX003 (ip), vehicle: water): 10 of 10
- survivor count (dose: 50.0 mg/kg/injection, schedule: Q04DX003 (ip), vehicle: water): 4 of 10

Compound: C=C1C(=O)OC2C=CCCCC12 (configuration not stated)
- survivor count [1]: 0 of 6 and 3 of 6
- survivor count [2]: 0 of 6

Compound: Cc1cccc(NC(=O)CS)n1
- survivor count (dose: 100.0 mg/kg/injection, schedule: Q01DX009 (ip), vehicle: Klucel (hydroxypropylcellulose) (HPC)): 6 of 6
- survivor count (dose: 200.0 mg/kg/injection, schedule: Q01DX009 (ip), vehicle: Klucel (hydroxypropylcellulose) (HPC)): 0 of 6

Compound: CN(C)CCO[Si](C)(C)[CH2][Sn]([CH3])([CH3])[CH3]
- survivor count (dose: 240.0 mg/kg/injection, schedule: Q01DX005 (ip), vehicle: saline): 0 of 6

Compound: O=c1cc2n(c(=O)n1Cc1ccccc1)CCC2
- survivor count [3]: 3 of 6
- survivor count [4]: 0 of 6
- survivor count [5]: 0 of 6

Compound: Cc1ccc(N=Nc2c(O)n(-c3ccccc3C)c(=S)n(-c3ccc(Br)cc3)c2=O)cc1
- survivor count (dose: 200.0 mg/kg/injection, schedule: Q01DX009 (ip), vehicle: saline with Tween-80): 3 of 6

Compound: O=C(c1ccc(Cl)cc1)N1CCN(C(=O)N2CCN(C(=O)N3CCN(C(=O)c4ccc(Cl)cc4)CC3)CC2)CC1
- survivor count (dose: 60.0 mg/kg/injection, schedule: Q01DX005 (ip), vehicle: saline with Tween-80): 6 of 6
- survivor count (dose: 120.0 mg/kg/injection, schedule: Q01DX005 (ip), vehicle: saline with Tween-80): 6 of 6

Compound: CCOS(=O)(=O)c1ccc([N+](=O)[O-])cc1
- survivor count (dose: 25.0 mg/kg/injection, schedule: Q01DX009 (ip), vehicle: saline): 6 of 6
- survivor count (dose: 50.0 mg/kg/injection, schedule: Q01DX009 (ip), vehicle: saline): 6 of 6
- survivor count (dose: 200.0 mg/kg/injection, schedule: Q01DX009 (ip), vehicle: saline): 4 of 6

Compound: O=S1(=O)CC(Cl)(Cl)C1
- survivor count [5]: 3 of 6

Compound: COc1cc2c(c(OC)c1OC)-c1ccc(OC)c(=O)cc1[C@@H](N(C)Cc1ccccc1O)CC2
- T/C (dose: 5.0 mg/kg/injection, schedule: Q01DX009 (ip), vehicle: Klucel (hydroxypropylcellulose) (HPC)): 125 % of control
- T/C (dose: 10.0 mg/kg/injection, schedule: Q01DX009 (ip), vehicle: Klucel (hydroxypropylcellulose) (HPC)): 139 and 143 % of control
- survivor count (dose: 40.0 mg/kg/injection, schedule: Q01DX009 (ip), vehicle: Klucel (hydroxypropylcellulose) (HPC)): 5 of 6

Compound: ClC1=CC(Cl)=C2N=C(C(Cl)(Cl)Cl)N=C3N=C(C(Cl)(Cl)Cl)N=C1N32
- survivor count (dose: 120.0 mg/kg/injection, schedule: Q01DX005 (ip), vehicle: Klucel + Tween-80): 1 of 6
- survivor count (dose: 240.0 mg/kg/injection, schedule: Q01DX005 (ip), vehicle: Klucel + Tween-80): 0 of 6

Compound: O=C(O)C(Cc1ccc(OC(=O)C(F)(F)F)cc1)NC(=O)C(F)(F)F (configuration not stated)
- survivor count (dose: 200.0 mg/kg/injection, schedule: Q04DX003 (ip), vehicle: saline with Tween-80): 5 of 6

Compound: CN1c2ccccc2S(=O)(=O)n2c(COc3ccc(Cl)cc3)nnc21
- survivor count [3]: 6 of 6
- survivor count [4]: 6 of 6
- survivor count [5]: 6 of 6

Compound: C[C@]12CC[C@H](OC(=O)/C=C\c3ccccc3N(CCCl)CCCl)CC1CC[C@@H]1C2CC[C@]2(C)NC(=O)CCC12 (some centres not stated)
- T/C [1]: 125 % of control
- T/C [2]: 134 and 140 % of control
